{"source": "patent EP0109697B1", "about": "“Rodent bait” (priority 1982, dated 1984)", "key": {"male 12-18 gram LAC mice": {"system": "male 12-18 gram LAC mice", "test": "Feeding test of mouse bait particles on mice (Example 8)", "type": "in vivo", "conditions": "0.1 mg aldicarb particles, one per two grams of oatmeal (50 ppm), ten male LAC mice", "procedure": "Particles of a size suitable for consumption whole (without nibbling) by mice, i.e. about 0.5 mm diameter spheres, containing 0.1 mg of aldicarb per particle were produced by a precipitation process.\n(§1) The mouse bait particles were distributed in medium oatmeal at the concentration of one per two grams of oatmeal (50 ppm), and the rat bait particles were distributed in medium oatmeal at the concentration of one per twenty grams of oatmeal (50 ppm).\n(§2) Ten male 12-18 gram LAC mice and five female 300-350 gram Wistar rats were permitted to feed on the mouse bait; and five female 300-350 gram Wistar rats were allowed to feed on the rat bait. The baits were topped up when necessary to keep a supply of food material available, and water was supplied freely."}, "[1]": {"system": "female 300-350 gram Wistar rats", "test": "Feeding test of rat bait particles on rats (Example 8)", "type": "in vivo", "conditions": "1.0 mg aldicarb particles, one per twenty grams of oatmeal (50 ppm), five female Wistar rats", "procedure": "Suitably larger particles appropriate for rats, i.e. about 1 mm x 1 mm cylinders, containing 1.0 mg of aldicarb per particle were produced by extrusion.\nas §1, §2"}}}
{"smiles": "CNC(=O)O/N=C/C(C)(C)SC", "note": "[aldicarb, 2 methyl-2-(methylthio) propionaldehyde 0-(methylcarbamoyl) oxime]", "values": [{"measurement": "Mouse bait particles Mouse Consumption", "setting": "male 12-18 gram LAC mice; Day 1", "result": 25, "unit": "g"}, {"measurement": "Mouse bait particles Mouse Consumption", "setting": "male 12-18 gram LAC mice; Day 2", "result": 10, "unit": "g"}, {"measurement": "Mouse bait particles Mouse Consumption", "setting": "male 12-18 gram LAC mice; Day 3", "result": 0, "unit": "g"}, {"measurement": "Rat bait particles Rat Consumption", "setting": "[1]; Day 1", "result": 70, "unit": "g"}, {"measurement": "Rat bait particles Rat Consumption", "setting": "[1]; Day 2", "result": 20, "unit": "g"}, {"measurement": "Rat bait particles Rat Consumption", "setting": "[1]; Day 3", "result": 0, "unit": "g"}]}
